Measured values taken from patent US20040005648A1, “PYK2 related products and methods” (Sugen, Inc., priority 1994, published 2004).
For at least one compound, name, drawing or mass did not settle the structure.

Tested on: PYK2
Assay: Tyrosine phosphorylation of PYK2 in stimulated PC12 cells (anti-PYK2 immunoprecipitation, anti-phosphotyrosine immunoblot)
Format: cell-based, rat

**Q.** With `C=C[C@@]1(C)CC(=O)[C@]2(O)[C@@]3(C)[C@@H](O)CCC(C)(C)[C@@H]3[C@H](O)[C@H](OC(C)=O)[C@@]2(C)O1` [Forskolin, forskolin] as the molecule, how does the “tyrosine phosphorylation of PYK2 in response to the agent” value (agent alone, 37° C., b373: TPA 15 min, bradykinin 1 μM 1 min, A23187 2 μM 15 min, KCl 75 mM) read?
**A.** does not give any signal by itself

**Q.** What about the “effect on the PYK-2 tyrosine phosphorylation response to TPA / bradykinin” value (agent in combination with TPA or bradykinin) of the same molecule?
**A.** increase the response of TPA
